Laboratory results: publication PMC6435041
Results are given in words; binding and its absence hold for the method and conditions named. Binding seen in cells or lysates may run through a third protein. Some entries that bind do so weakly or less than the wild type. Tags and fused reporters may be left off the sequences shown.

Sequences of proteins named here, by UniProt entry; tags and fusion partners are left off. A change or cut given only in a name is not applied to a line headed by its entry. A line that says so, or that is headed by a name, gives the form on record, which may keep a tag or linker.
UniProt Q16637: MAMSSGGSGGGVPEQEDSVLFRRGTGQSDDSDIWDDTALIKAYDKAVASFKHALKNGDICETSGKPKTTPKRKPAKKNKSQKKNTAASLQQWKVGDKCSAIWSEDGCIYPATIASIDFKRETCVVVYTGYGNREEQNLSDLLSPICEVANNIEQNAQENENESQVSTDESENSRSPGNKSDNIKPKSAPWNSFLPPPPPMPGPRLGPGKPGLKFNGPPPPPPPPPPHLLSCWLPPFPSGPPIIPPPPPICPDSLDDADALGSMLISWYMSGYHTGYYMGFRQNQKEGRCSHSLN
Myc-SMN2a (SMN-Δ7, exon 7-deleted form of survival motor neuron protein) (Q16637, form named): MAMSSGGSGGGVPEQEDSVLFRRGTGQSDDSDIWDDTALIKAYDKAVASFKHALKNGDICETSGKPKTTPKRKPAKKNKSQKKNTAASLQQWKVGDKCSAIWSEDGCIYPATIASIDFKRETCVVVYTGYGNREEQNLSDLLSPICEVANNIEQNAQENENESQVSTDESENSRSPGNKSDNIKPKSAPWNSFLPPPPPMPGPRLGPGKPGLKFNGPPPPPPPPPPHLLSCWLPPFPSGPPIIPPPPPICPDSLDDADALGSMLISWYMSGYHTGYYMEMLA

What was measured:
[1] = biological target: Myc-SMN2a (SMN-Δ7, exon 7-deleted form of survival motor neuron protein) (human) (UniProt Q16637); test: co-IP; HEK293 cells co-transfected with 1 μg protease plasmid, 1 μg pLVX-Tight-Myc-SMN2a/d and 1 μg EF1α-rtTA plasmid; which partner was precipitated is not told for this experiment
[2] = biological target: Myc-SMN2d (SMN-FL, full-length survival motor neuron protein) (human) (UniProt Q16637); test: as above

B1: HA-tagged CAPN7 (enzyme, UniProt Q9Y6W3 1-813)
chain: MDATALERDAVQFARLAVQRDHEGRYSEAVFYYKEAAQALIYAEMAGSSLENIQEKITEYLERVQALHSAVQSKSADPLKSKHQLDLERAHFLVTQAFDEDEKENVEDAIELYTEAVDLCLKTSYETADKVLQNKLKQLARQALDRAEALSEPLTKPVGKISSTSVKPKPPPVRAHFPLGANPFLERPQSFISPQSCDAQGQRYTAEEIEVLRTTSKINGIEYVPFMNVDLRERFAYPMPFCDRWGKLPLSPKQKTTFSKWVRPEDLTNNPTMIYTVSSFSIKQTIVSDCSFVASLAISAAYERRFNKKLITGIIYPQNKDGEPEYNPCGKYMVKLHLNGVPRKVIIDDQLPVDHKGELLCSYSNNKSELWVSLIEKAYMKVMGGYDFPGSNSNIDLHALTGWIPERIAMHSDSQTFSKDNSFRMLYQRFHKGDVLITASTGMMTEAEGEKWGLVPTHAYAVLDIREFKGLRFIQLKNPWSHLRWKGRYSENDVKNWTPELQKYLNFDPRTAQKIDNGIFWISWDDLCQYYDVIYLSWNPGLFKESTCIHSTWDAKQGPVKDAYSLANNPQYKLEVQCPQGGAAVWVLLSRHITDKDDFANNREFITMVVYKTDGKKVYYPADPPPYIDGIRINSPHYLTKIKLTTPGTHTFTLVVSQYEKQNTIHYTVRVYSACSFTFSKIPSPYTLSKRINGKWSGQSAGGCGNFQETHKNNPIYQFHIEKTGPLLIELRGPRQYSVGFEVVTVSTLGDPGPHGFLRKSSGDYRCGFCYLELENIPSGIFNIIPSTFLPKQEGPFFLDFNSIIPIKITQLQ
[1]
  binding: binds
[2]
  binding: binds
